Data taken from publication PMC4837377.
No constants are given. Whether binding was seen depends on the method and setting.

What was measured:
[1] = target: T1, RanBP5 expressed alone (construct 22) (human), O00410; assay: SEC-SAXS; both purified; settings: remark: other sources report otherwise
T1 chain: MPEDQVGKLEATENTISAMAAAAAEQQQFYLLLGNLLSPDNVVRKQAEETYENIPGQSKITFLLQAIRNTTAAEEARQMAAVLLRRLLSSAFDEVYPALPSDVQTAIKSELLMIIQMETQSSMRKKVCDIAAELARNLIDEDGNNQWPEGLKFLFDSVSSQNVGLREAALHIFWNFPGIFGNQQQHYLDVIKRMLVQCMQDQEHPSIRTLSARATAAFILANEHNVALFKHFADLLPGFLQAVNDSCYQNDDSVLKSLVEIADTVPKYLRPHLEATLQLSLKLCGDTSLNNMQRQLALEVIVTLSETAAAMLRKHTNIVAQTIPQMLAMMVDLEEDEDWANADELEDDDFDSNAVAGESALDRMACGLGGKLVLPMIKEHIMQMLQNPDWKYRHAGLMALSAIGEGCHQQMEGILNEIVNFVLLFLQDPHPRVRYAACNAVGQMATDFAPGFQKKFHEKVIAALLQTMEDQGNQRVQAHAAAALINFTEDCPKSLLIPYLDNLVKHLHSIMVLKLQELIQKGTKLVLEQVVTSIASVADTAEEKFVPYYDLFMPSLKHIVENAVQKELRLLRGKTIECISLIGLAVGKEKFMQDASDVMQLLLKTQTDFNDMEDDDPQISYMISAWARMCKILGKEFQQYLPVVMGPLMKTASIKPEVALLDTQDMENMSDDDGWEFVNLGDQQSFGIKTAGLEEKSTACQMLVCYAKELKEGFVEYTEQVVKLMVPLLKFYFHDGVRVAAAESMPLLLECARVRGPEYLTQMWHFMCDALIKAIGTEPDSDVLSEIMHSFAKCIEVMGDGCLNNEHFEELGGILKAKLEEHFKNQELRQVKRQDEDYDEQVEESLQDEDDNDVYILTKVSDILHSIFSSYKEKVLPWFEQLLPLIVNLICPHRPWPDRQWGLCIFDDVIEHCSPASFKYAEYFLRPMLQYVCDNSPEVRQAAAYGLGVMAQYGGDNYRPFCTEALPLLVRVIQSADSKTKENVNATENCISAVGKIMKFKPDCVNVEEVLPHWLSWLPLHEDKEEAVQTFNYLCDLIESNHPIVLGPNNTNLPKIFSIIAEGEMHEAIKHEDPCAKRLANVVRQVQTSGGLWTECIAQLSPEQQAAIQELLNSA

[2] = target: T1, RanBP5 expressed alone (construct 22) …; assay: SEC-MALS; both purified; settings: remark: other sources report otherwise

binding [1]: no binding
binding [2]: no binding
B1: RanBP5 expressed alone (construct 22), O00410-3 1-1115 (protein)
chain: T1 chain
